Measurements: the supplement of paper PMC8728848
This is one part of the list.

Key:
Assay in all cases: glycan array binding signal (z-score within array); higher = stronger binding
Conditions in all cases: glycan notation: IUPAC condensed, linker removed; mutation: R201A
[1] = target: Neu5Ac(a2-3)Gal(b1-3)GlcNAc
Summary of the method: (§1)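 Glycan array binding is given as a within-array Z-score, which can be read as non-binding when negative. The arrays, 3228 of them, came from the Consortium for Functional Glycomics database and were retained only where the protein sequence was available. Z-scores were averaged across arrays of the same protein sequence at different concentrations or buffers and across linkers.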

[2] = target: Neu5Ac(a2-3)Gal(b1-3)GlcNAc(b1-2)Man
Summary of the method: as §1

[3] = target: Neu5Ac(a2-3)Gal(b1-3)GlcNAc(b1-2)Man(a1-3)[GlcNAc(b1-4)][Neu5Ac(a2-3)Gal(b1-3)GlcNAc(b1-2)Man(a1-6)]Man(b1-4)GlcNAc(b1-4)GlcNAc
Summary of the method: as §1

[4] = target: Neu5Ac(a2-3)Gal(b1-3)GlcNAc(b1-2)Man(a1-3)[Neu5Ac(a2-3)Gal(b1-3)GlcNAc(b1-2)Man(a1-6)]Man(b1-4)GlcNAc(b1-4)GlcNAc
Summary of the method: as §1

[5] = target: Neu5Ac(a2-3)Gal(b1-3)GlcNAc(b1-2)[Neu5Ac(a2-3)Gal(b1-3)GlcNAc(b1-4)]Man(a1-6)[Neu5Ac(a2-3)Gal(b1-3)GlcNAc(b1-2)Man(a1-3)]Man(b1-4)GlcNAc(b1-4)GlcNAc
Summary of the method: as §1

[6] = target: Neu5Ac(a2-3)Gal(b1-3)GlcNAc(b1-3)Gal(b1-3)GlcNAc
Summary of the method: as §1

[7] = target: Neu5Ac(a2-3)Gal(b1-3)GlcNAc(b1-3)Gal(b1-4)GlcNAc
Summary of the method: as §1

[8] = target: Neu5Ac(a2-3)Gal(b1-3)GlcNAc(b1-3)GalNAc
Summary of the method: as §1

[9] = target: Neu5Ac(a2-3)Gal(b1-3)GlcNAc(b1-6)GalNAc
Summary of the method: as §1

[10] = target: Neu5Ac(a2-3)Gal(b1-3)GlcNAc6S
Summary of the method: as §1

[11] = target: Neu5Ac(a2-3)Gal(b1-3)[Fuc(a1-4)]GlcNAc
Summary of the method: as §1

[12] = target: Neu5Ac(a2-3)Gal(b1-3)[Fuc(a1-4)]GlcNAc(b1-3)Gal(b1-3)[Fuc(a1-4)]GlcNAc
Summary of the method: as §1

[13] = target: Neu5Ac(a2-3)Gal(b1-3)[Fuc(a1-4)]GlcNAc(b1-3)Gal(b1-4)[Fuc(a1-3)]GlcNAc
Summary of the method: as §1

[14] = target: Neu5Ac(a2-3)Gal(b1-3)[GlcNAc(b1-6)]GalNAc
Summary of the method: as §1

[15] = target: Neu5Ac(a2-3)Gal(b1-3)[Neu5Ac(a2-6)]GalNAc
Summary of the method: as §1

[16] = target: Neu5Ac(a2-3)Gal(b1-3)[Neu5Ac(a2-6)]GlcNAc(b1-3)[Fuc(a1-3)[Gal(b1-4)]GlcNAc(b1-6)]Gal(b1-4)Glc
Summary of the method: as §1

[17] = target: Neu5Ac(a2-3)Gal(b1-3)]Neu5Ac(a2-3)Gal(b1-4)]GlcNAc
Summary of the method: as §1

Neu5Ac(a2-3)Gal(b1-4)Glc = target: Neu5Ac(a2-3)Gal(b1-4)Glc
Summary of the method: as §1

[18] = target: Neu5Ac(a2-3)Gal(b1-4)GlcNAc
Summary of the method: as §1

[19] = target: Neu5Ac(a2-3)Gal(b1-4)GlcNAc(b1-2)Man
Summary of the method: as §1

[20] = target: Neu5Ac(a2-3)Gal(b1-4)GlcNAc(b1-2)Man(a1-3)[GlcNAc(b1-4)][Neu5Ac(a2-3)Gal(b1-4)GlcNAc(b1-2)Man(a1-6)]Man(b1-4)GlcNAc(b1-4)GlcNAc
Summary of the method: as §1

[21] = target: Neu5Ac(a2-3)Gal(b1-4)GlcNAc(b1-2)Man(a1-3)[Neu5Ac(a2-3)Gal(b1-4)GlcNAc(b1-2)Man(a1-6)]Man(b1-4)GlcNAc(b1-4)GlcNAc
Summary of the method: as §1

[22] = target: Neu5Ac(a2-3)Gal(b1-4)GlcNAc(b1-2)Man(a1-3)[Neu5Ac(a2-3)Gal(b1-4)GlcNAc(b1-2)Man(a1-6)]Man(b1-4)GlcNAc(b1-4)[Fuc(a1-6)]GlcNAc
Summary of the method: as §1

[23] = target: Neu5Ac(a2-3)Gal(b1-4)GlcNAc(b1-2)Man(a1-3)[Neu5Ac(a2-6)Gal(b1-4)GlcNAc(b1-2)Man(a1-6)]Man(b1-4)GlcNAc(b1-4)GlcNAc
Summary of the method: as §1

[24] = target: Neu5Ac(a2-3)Gal(b1-4)GlcNAc(b1-2)[Neu5Ac(a2-3)Gal(b1-4)GlcNAc(b1-4)]Man(a1-3)[GlcNAc(b1-4)][Neu5Ac(a2-3)Gal(b1-4)GlcNAc(b1-2)[Neu5Ac(a2-3)Gal(b1-4)GlcNAc(b1-6)]Man(a1-6)]Man(b1-4)GlcNAc(b1-4)GlcNAc
Summary of the method: as §1

[25] = target: Neu5Ac(a2-3)Gal(b1-4)GlcNAc(b1-2)[Neu5Ac(a2-3)Gal(b1-4)GlcNAc(b1-4)]Man(a1-3)[GlcNAc(b1-4)][Neu5Ac(a2-3)Gal(b1-4)GlcNAc(b1-4)Man(a1-6)]Man(b1-4)GlcNAc(b1-4)GlcNAc
Summary of the method: as §1

[26] = target: Neu5Ac(a2-3)Gal(b1-4)GlcNAc(b1-2)[Neu5Ac(a2-3)Gal(b1-4)GlcNAc(b1-6)]Man(a1-6)[Neu5Ac(a2-3)Gal(b1-4)GlcNAc(b1-2)Man(a1-3)][GlcNAc(b1-4)]Man(b1-4)GlcNAc(b1-4)GlcNAc
Summary of the method: as §1

[27] = target: Neu5Ac(a2-3)Gal(b1-4)GlcNAc(b1-3)Gal
Summary of the method: as §1

[28] = target: Neu5Ac(a2-3)Gal(b1-4)GlcNAc(b1-3)Gal(b1-3)GlcNAc
Summary of the method: as §1

[29] = target: Neu5Ac(a2-3)Gal(b1-4)GlcNAc(b1-3)Gal(b1-4)GlcNAc
Summary of the method: as §1

[30] = target: Neu5Ac(a2-3)Gal(b1-4)GlcNAc(b1-3)Gal(b1-4)GlcNAc(b1-2)Man(a1-3)[Neu5Ac(a2-3)Gal(b1-4)GlcNAc(b1-3)Gal(b1-4)GlcNAc(b1-2)Man(a1-6)]Man(b1-4)GlcNAc(b1-4)GlcNAc
Summary of the method: as §1

[31] = target: Neu5Ac(a2-3)Gal(b1-4)GlcNAc(b1-3)Gal(b1-4)GlcNAc(b1-3)Gal(b1-4)GlcNAc
Summary of the method: as §1

[32] = target: Neu5Ac(a2-3)Gal(b1-4)GlcNAc(b1-3)Gal(b1-4)GlcNAc(b1-3)Gal(b1-4)GlcNAc(b1-2)Man(a1-3)[Neu5Ac(a2-3)Gal(b1-4)GlcNAc(b1-3)Gal(b1-4)GlcNAc(b1-3)Gal(b1-4)GlcNAc(b1-2)Man(a1-6)]GalNAc
Summary of the method: as §1

[33] = target: Neu5Ac(a2-3)Gal(b1-4)GlcNAc(b1-3)Gal(b1-4)GlcNAc(b1-3)GalNAc
Summary of the method: as §1

[34] = target: Neu5Ac(a2-3)Gal(b1-4)GlcNAc(b1-3)Gal(b1-4)GlcNAc(b1-3)[Neu5Ac(a2-3)Gal(b1-4)GlcNAc(b1-3)Gal(b1-4)GlcNAc(b1-6)]GalNAc
Summary of the method: as §1

[35] = target: Neu5Ac(a2-3)Gal(b1-4)GlcNAc(b1-3)Gal(b1-4)GlcNAc(b1-6)[Gal(b1-3)]GalNAc
Summary of the method: as §1

[36] = target: Neu5Ac(a2-3)Gal(b1-4)GlcNAc(b1-3)Gal(b1-4)[Fuc(a1-3)]GlcNAc
Summary of the method: as §1

[37] = target: Neu5Ac(a2-3)Gal(b1-4)GlcNAc(b1-3)GalNAc
Summary of the method: as §1

B1: OS9 (Arabidopsis thaliana) (protein)
chain: MRGSHHHHHHGMASMTGGQQMGRDLYDDDDKSRLQIFPAHLVGTFSRNNREPKYKIEFLPEDSPFHPGDNLESMVMLDKHGNRFLCYLPKEEKATSGWTSSQQNISTVMMETQQLVKLKTPDELLQPLSEKCLFRQEGWWSYEFCHQKYVRQLHVEDENKIVQEFFLGTFDPEATAAFNQTVSDASTDASQRYHSHVYTNGTTCDLTGSPAEVEVRFVCAETRAMVTSITELSTCKYALTVQCPTLCKHPLFQLEKPVSHTIHCNAIPVEEDATRNKEEQAVDESPKMIADS
[1]
  glycan array binding signal (z-score): 0.668
[2]
  glycan array binding signal (z-score): -0.442
[3]
  glycan array binding signal (z-score): 1.21
[4]
  glycan array binding signal (z-score): -0.911
[5]
  glycan array binding signal (z-score): -1.14
[6]
  glycan array binding signal (z-score): 1.08
[7]
  glycan array binding signal (z-score): -0.934
[8]
  glycan array binding signal (z-score): -0.046
[9]
  glycan array binding signal (z-score): -0.495
[10]
  glycan array binding signal (z-score): -0.775
[11]
  glycan array binding signal (z-score): -0.618
[12]
  glycan array binding signal (z-score): -0.446
[13]
  glycan array binding signal (z-score): -0.256
[14]
  glycan array binding signal (z-score): -0.397
[15]
  glycan array binding signal (z-score): 0.179
[16]
  glycan array binding signal (z-score): 0.799
[17]
  glycan array binding signal (z-score): 1.78
Neu5Ac(a2-3)Gal(b1-4)Glc
  glycan array binding signal (z-score): 2.08
[18]
  glycan array binding signal (z-score): -0.367
[19]
  glycan array binding signal (z-score): -0.531
[20]
  glycan array binding signal (z-score): -0.348
[21]
  glycan array binding signal (z-score): -0.728
[22]
  glycan array binding signal (z-score): 0.474
[23]
  glycan array binding signal (z-score): -0.425
[24]
  glycan array binding signal (z-score): -0.729
[25]
  glycan array binding signal (z-score): -0.731
[26]
  glycan array binding signal (z-score): -0.773
[27]
  glycan array binding signal (z-score): -0.585
[28]
  glycan array binding signal (z-score): -0.881
[29]
  glycan array binding signal (z-score): 0.1
[30]
  glycan array binding signal (z-score): 0.578
[31]
  glycan array binding signal (z-score): -0.096
[32]
  glycan array binding signal (z-score): -0.399
[33]
  glycan array binding signal (z-score): 0.811
[34]
  glycan array binding signal (z-score): 1.19
[35]
  glycan array binding signal (z-score): 1.23
[36]
  glycan array binding signal (z-score): 0.333
[37]
  glycan array binding signal (z-score): -0.129
